Results reported in PubChem BioAssay (EPA / NIEHS).
The inconclusive results got no clear call from the source; some entries with a clear call stand among them for comparison. For some of these results: Potencies beside an inconclusive call are fits to weak or partial responses and may not hold up. Active and inactive are the calls of the source. Rule for the calls: active = hit-call score of the fitted dose curve at least 0.9, where 1 is the maximum; inconclusive = response in the unintended direction; inactive = score below 0.9.

The chains behind the UniProt entries cited, without tags or fusion partners. Where a name states a change or a piece, a line headed by the entry shows the natural chain unless it says otherwise.
UniProt O75469: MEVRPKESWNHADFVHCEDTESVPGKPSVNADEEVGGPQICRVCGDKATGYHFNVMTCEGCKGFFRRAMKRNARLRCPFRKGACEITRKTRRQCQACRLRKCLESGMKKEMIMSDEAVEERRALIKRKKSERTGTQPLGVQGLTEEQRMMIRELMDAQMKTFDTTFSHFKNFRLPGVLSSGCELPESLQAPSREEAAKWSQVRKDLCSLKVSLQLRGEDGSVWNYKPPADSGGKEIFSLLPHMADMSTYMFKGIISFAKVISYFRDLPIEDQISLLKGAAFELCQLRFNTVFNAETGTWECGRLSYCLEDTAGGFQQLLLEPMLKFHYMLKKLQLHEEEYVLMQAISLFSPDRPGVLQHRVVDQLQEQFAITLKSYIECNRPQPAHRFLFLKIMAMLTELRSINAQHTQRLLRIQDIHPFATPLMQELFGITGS
UniProt P33261, whole entry, looked up: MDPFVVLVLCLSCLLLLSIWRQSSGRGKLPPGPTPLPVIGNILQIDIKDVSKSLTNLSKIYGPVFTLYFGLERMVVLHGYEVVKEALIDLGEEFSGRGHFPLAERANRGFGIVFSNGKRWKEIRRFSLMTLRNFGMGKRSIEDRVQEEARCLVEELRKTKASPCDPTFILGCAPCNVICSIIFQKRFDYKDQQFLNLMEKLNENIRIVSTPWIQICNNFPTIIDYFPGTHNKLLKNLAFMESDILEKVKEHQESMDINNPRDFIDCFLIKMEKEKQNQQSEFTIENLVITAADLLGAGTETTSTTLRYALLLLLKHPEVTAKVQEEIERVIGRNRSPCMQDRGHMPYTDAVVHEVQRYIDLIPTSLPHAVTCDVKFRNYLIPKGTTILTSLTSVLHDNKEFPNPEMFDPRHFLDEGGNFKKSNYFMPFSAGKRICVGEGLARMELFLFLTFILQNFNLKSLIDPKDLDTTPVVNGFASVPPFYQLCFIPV
UniProt P04406: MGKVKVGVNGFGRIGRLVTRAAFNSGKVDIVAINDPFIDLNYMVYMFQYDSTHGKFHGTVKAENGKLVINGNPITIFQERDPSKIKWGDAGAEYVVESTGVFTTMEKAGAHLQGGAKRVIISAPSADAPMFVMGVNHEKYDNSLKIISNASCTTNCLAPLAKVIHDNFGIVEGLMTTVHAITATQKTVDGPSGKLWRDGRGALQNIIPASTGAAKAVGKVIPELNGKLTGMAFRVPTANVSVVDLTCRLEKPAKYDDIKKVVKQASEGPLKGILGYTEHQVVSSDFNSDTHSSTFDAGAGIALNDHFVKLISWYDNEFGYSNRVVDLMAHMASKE
UniProt P11712, whole entry, looked up: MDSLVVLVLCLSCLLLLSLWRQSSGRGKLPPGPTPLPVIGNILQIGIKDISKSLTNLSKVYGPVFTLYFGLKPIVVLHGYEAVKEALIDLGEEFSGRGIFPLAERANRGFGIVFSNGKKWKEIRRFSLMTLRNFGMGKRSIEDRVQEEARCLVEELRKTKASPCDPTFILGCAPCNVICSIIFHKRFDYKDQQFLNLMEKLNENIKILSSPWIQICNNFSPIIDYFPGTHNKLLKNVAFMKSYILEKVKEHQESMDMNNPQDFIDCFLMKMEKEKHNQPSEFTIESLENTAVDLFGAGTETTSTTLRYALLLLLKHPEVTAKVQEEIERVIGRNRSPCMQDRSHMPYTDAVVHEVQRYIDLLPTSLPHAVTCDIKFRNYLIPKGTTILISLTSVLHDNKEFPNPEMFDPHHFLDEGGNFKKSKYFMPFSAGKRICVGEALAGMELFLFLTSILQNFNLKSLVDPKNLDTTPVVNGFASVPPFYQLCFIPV
UniProt Q9UNQ0: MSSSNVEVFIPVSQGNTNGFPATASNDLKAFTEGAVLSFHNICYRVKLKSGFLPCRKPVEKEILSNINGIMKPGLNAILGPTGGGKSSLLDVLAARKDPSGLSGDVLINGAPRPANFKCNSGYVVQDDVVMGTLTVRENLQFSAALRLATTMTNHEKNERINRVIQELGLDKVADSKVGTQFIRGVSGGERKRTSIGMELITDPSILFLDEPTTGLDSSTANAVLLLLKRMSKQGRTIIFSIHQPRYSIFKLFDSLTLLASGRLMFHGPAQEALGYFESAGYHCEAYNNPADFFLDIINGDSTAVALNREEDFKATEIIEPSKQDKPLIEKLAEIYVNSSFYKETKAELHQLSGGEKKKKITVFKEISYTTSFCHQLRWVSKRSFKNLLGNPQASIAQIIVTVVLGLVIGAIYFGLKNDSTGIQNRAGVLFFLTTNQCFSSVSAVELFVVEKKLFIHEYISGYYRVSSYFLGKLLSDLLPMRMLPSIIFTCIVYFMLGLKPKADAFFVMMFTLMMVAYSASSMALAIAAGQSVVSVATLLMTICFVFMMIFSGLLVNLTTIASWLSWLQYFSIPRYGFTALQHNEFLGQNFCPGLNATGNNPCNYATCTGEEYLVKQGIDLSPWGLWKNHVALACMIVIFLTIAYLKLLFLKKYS
UniProt Q01717: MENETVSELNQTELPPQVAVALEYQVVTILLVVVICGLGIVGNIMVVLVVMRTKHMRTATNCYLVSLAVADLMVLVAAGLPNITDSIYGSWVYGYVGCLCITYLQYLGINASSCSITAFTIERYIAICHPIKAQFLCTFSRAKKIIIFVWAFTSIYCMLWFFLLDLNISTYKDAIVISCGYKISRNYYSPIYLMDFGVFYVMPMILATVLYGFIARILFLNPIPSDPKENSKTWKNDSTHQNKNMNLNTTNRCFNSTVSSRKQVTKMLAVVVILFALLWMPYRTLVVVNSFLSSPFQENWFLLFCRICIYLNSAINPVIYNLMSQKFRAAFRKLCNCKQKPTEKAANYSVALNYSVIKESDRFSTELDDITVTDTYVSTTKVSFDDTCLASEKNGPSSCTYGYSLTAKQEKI
UniProt P04150: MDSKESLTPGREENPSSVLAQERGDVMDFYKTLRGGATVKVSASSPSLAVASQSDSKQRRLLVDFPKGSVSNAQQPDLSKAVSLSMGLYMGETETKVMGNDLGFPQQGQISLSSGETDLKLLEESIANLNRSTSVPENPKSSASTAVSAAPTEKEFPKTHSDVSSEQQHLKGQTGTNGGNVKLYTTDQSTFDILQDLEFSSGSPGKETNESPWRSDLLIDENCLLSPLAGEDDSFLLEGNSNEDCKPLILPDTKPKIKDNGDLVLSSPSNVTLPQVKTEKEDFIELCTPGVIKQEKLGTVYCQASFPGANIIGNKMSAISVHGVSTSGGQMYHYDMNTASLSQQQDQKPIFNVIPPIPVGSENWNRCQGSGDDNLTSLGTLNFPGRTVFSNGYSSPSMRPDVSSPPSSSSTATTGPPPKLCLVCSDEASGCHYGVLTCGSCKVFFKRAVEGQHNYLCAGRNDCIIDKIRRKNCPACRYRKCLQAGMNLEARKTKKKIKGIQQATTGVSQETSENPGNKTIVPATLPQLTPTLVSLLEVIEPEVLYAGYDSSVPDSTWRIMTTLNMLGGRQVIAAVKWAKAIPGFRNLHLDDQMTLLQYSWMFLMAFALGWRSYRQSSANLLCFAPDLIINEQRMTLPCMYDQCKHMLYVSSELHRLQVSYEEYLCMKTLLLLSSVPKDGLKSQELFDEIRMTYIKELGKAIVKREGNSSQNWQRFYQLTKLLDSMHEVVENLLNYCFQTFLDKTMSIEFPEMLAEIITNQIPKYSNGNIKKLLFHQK
UniProt Q96RI1: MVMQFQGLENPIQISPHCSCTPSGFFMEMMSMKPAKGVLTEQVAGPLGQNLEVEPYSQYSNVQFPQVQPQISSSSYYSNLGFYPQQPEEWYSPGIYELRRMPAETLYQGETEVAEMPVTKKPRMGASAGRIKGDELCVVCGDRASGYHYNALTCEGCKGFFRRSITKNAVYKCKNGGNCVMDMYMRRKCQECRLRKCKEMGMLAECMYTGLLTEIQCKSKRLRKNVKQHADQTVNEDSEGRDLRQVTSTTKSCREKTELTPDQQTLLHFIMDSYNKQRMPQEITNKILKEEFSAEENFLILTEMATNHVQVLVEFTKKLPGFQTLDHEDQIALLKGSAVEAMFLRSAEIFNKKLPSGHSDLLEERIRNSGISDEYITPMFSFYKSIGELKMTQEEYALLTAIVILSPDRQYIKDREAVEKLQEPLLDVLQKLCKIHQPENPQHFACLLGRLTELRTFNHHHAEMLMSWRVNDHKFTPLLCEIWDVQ

Assays:
[1] = ATG_Hpa5_TRANS: Attagene TRANS-FACTORIAL HepG2 Assay for human GAL4-Hpa5 Hepatocyte Transcription Factor Basal Promoter (AID 2282975); details: HepG2 Attagene GAL4-Hpa5 transcription reporter;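 for outcome: hits are increases in reporter mRNA over DMSO baseline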
How it was run: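 Gain-of-signal versus DMSO is fitted for reporter mRNA quantified by RT-PCR and capillary electrophoresis after 24 h exposure. This endpoint is an internal background marker in transiently transfected HepG2 cells carrying GAL4-UAS reporter units.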

[2] = target: Nuclear receptor subfamily 1 group I member 2 (Homo sapiens) (UniProt O75469); experiment: ATG_PXR_TRANS: Attagene TRANS-FACTORIAL HepG2 Assay for human Pregnane X Receptor (PXR) (AID 2283008)
How it was run: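 Trans-factorial format: exogenous NR-Gal4 fusion activity, not endogenous factor, in transfected human HepG2 liver cells. After 24 h dosing, RNA isolated, reverse-transcribed, amplified and resolved by capillary electrophoresis; induction scored versus DMSO.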

[3] = read-out: Cytochrome P450 2C19 (Homo sapiens) (UniProt P33261); experiment: CLD_CYP2C19_6hr: CellzDirect (CLD) Gene Expression Assay for xenobiotic metabolism (CYP2C19) at 6 hours (AID 2283678)
How it was run: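 CYP2C19 transcript induction was quantified by quantitative nuclease protection assay with chemiluminescent read-out, 6 h after dosing. Cells were primary human hepatocytes from two donor preparations, given fresh dosing solutions daily in 0.2% DMSO vehicle. Activity was relative to DMSO.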

[4] = read-out: Glyceraldehyde-3-phosphate dehydrogenase (Homo sapiens) (UniProt P04406); experiment: CLD_GAPDH_6hr: CellzDirect (CLD) Gene Expression Assay for Baseline Control (Glyceraldehyde 3-phosphate dehydrogenase) at 6 hours (AID 2283681);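 for outcome: active means increased signal relative to DMSO vehicle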
How it was run: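 GAPDH baseline-control readout from qNPA (S1 nuclease digestion, probe hybridization, chemiluminescence) in lysates of cultured human hepatocytes harvested 6 h post-dosing. Chemicals tested at multiple concentrations versus 0.2% DMSO vehicle; microscopy-based cytotoxicity flagged yes/no.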

[5] = read-out: Cytochrome P450 2C9 (Homo sapiens) (UniProt P11712); experiment: CLD_CYP2C9_24hr: CellzDirect (CLD) Gene Expression Assay for xenobiotic metabolism (CYP2C9) at 24 hours (AID 2283688);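 for AC50: potency for induction meaning a rise in CYP2C9 mRNA over DMSO vehicle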
How it was run: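 Induction of CYP2C9 mRNA was quantified by quantitative nuclease protection assay (chemiluminescence), gain of signal versus 0.2% DMSO vehicle, 24 h after dosing. Human primary hepatocytes (two donors) received fresh chemical daily at multiple concentrations; morphology-based cytotoxicity flagged yes/no.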

[6] = read-out: Glyceraldehyde-3-phosphate dehydrogenase (Homo sapiens) (UniProt P04406); experiment: CLD_GAPDH_24hr: CellzDirect (CLD) Gene Expression Assay for Baseline Control (Glyceraldehyde 3-phosphate dehydrogenase) at 24 hours (AID 2283692)
How it was run: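 GAPDH baseline-control readout: qNPA chemiluminescent mRNA signal in human primary hepatocytes harvested 24 h after daily dosing, normalised to 0.2% DMSO with positive fitting direction; cytotoxicity annotated by phase-contrast morphology.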

[7] = read-out: ABC Transporter (ABCB11), ABCB11 (gene 8647); experiment: CLD_ABCB11_48hr: CellzDirect (CLD) Gene Expression Assay for ABC Transporter (ABCB11) at 48 hours (AID 2283697)
How it was run: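 Induction of ABCB11 mRNA relative to 0.2% DMSO, measured at 48 h by qNPA chemiluminescence. Cultured human hepatocytes (two donors) received fresh dosing solutions at several concentrations on two consecutive days.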

[8] = read-out: Broad substrate specificity ATP-binding cassette transporter ABCG2 (Homo sapiens) (UniProt Q9UNQ0); experiment: CLD_ABCG2_48hr: CellzDirect (CLD) Gene Expression Assay for ABC Transporter (ABCG2) at 48 hours (AID 2283704);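 note: potency for induction of ABCG2 mRNA above the DMSO baseline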
How it was run: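 ABCG2 transcript measured at 48 h by quantitative nuclease protection (chemiluminescent) and fitted for increase relative to 0.2% DMSO. Hepatocyte cultures from separate donors got fresh compound daily over two days; morphology annotated cytotoxicity.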

[9] = target: rat Thyrotropin Releasing Hormone Receptor (TRH), Trhr (gene 25570) (UniProt Q01717); experiment: NVS_GPCR_rTRH: NovaScreen (NVS) G Protein-Coupled Receptor Assay for rat Thyrotropin Releasing Hormone Receptor (TRH) (AID 2283329);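 note: hit means lower bound tracer signal versus DMSO baseline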
How it was run: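 Rat forebrain membrane prep, radioligand displacement, filter scintillation readout at 4 h. Single conc 25 uM, duplicate; actives retested as concentration series. DMSO = negative control/baseline.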

[10] = Tanguay_ZF_120hpf_PIG_legacy: (Legacy) Oregon State University Tanguay Lab 120 Hour Post-fertilization zebrafish Assay for Pigmentation Malformation (AID 2283650)
How it was run: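 Endpoint is incidence of abnormal pigmentation at 120 hpf in dechorionated 5D zebrafish exposed singly from 6 hpf at 28C, DMSO vehicle at 0.64%. Embryos dying by 24 or 120 hpf are excluded from scoring.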

[11] = CLD_ACTIN_6hr: CellzDirect (CLD) Gene Expression Assay for Baseline Control (Actin) at 6 hours (AID 2283676);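 for outcome: active means increased actin mRNA relative to DMSO vehicle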
How it was run: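 Baseline actin transcript level measured by qNPA (S1 nuclease protection, chemiluminescence) in human hepatocyte cultures 6 h after chemical exposure; 0.2% DMSO vehicle as reference, cytotoxicity noted from morphology.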

[12] = read-out: HMG-CoA synthase (HMGCS2), HMGCS2 (gene 3158); experiment: CLD_HMGCS2_6hr: CellzDirect (CLD) Gene Expression Assay for HMG-CoA synthase (HMGCS2) at 6 hours (AID 2283682);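 note: actives raise HMGCS2 transcript above the 0.2% DMSO vehicle baseline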
How it was run: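 HMGCS2 transcript induction read by quantitative nuclease protection with chemiluminescence, 6 h after dosing of primary human hepatocytes. Baseline was 0.2% DMSO vehicle; phase-contrast morphology gave a yes/no cytotoxicity annotation.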

[13] = read-out: Cytochrome P450 2C19 (Homo sapiens) (UniProt P33261); experiment: CLD_CYP2C19_24hr: CellzDirect (CLD) Gene Expression Assay for xenobiotic metabolism (CYP2C19) at 24 hours (AID 2283687);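 for outcome: activity means mRNA induction above DMSO vehicle baseline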
How it was run: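 CYP2C19 mRNA was quantified by qNPA chemiluminescence after 24 h of daily dosing of cultured human primary hepatocytes from two donors; vehicle was 0.2% DMSO, and increases over DMSO baseline were fitted.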

[14] = read-out: alkyl and aryl transferase (GSTA2), GSTA2 (gene 2939); experiment: CLD_GSTA2_48hr: CellzDirect (CLD) Gene Expression Assay for alkyl and aryl transferase (GSTA2) at 48 hours (AID 2283708);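 note: active means mRNA induction above DMSO vehicle baseline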
How it was run: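 GSTA2 mRNA quantified by qNPA chemiluminescence in human primary hepatocyte lysates after 48 h of daily fresh chemical dosing. Increases fitted against 0.2% DMSO vehicle baseline; cytotoxicity from morphology annotated yes/no.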

[15] = CCTE_Deisenroth_AIME_384WELL_CTox_Active: Cytotoxicity Assessment (CTOX) in CCTE's 384-well Estrogen Receptor Transactivation Assay with AIME metabolic competence (metabolism positive), Deisenroth Lab (AID 2284037);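 note: chemicals first conditioned 2 h by alginate-bound induced rat liver S9 before cells; activity means signal loss indicating cell death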
How it was run: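 VM7Luc4E2 breast cells received medium pre-incubated 2 h with chemical over alginate microspheres holding induced male Sprague Dawley rat liver S9; viability read 24 h later by protease-substrate fluorescence. Loss of signal, bidirectional fit, 0.002–200 uM.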

[16] = CCTE_Deisenroth_AIME_384WELL_CTox_Inactive: Cytotoxicity Assessment (CTOX) in CCTE's 384-well Estrogen Receptor Transactivation Assay without AIME metabolic competence (metabolism negative), Deisenroth Lab (AID 2284039);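 note: cell viability via live-cell protease substrate cleaved to fluorescent probe; cells exposed 24 h to medium preincubated 2 h with alginate-water beads without S9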
How it was run: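 Metabolism-negative arm: chemicals (10-point, 0.002 - 200 uM) preincubated 2 h with alginate-water lids, medium moved onto VM7Luc4E2 cells for 24 h. Fluorescent live-cell protease readout; bidirectional curve fit.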

[17] = read-out: organic anion transporter (SLCO1B1), SLCO1B1 (gene 10599); experiment: CLD_SLCO1B1_24hr: CellzDirect (CLD) Gene Expression Assay for organic anion transporter (SLCO1B1) at 24 hours (AID 2283690)
How it was run: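 SLCO1B1 mRNA induction read at 24 h by quantitative nuclease protection assay (chemiluminescence), analyzed against DMSO baseline. Human hepatocyte cultures from separate donors received fresh dosing solutions daily; vehicle 0.2% DMSO; cytotoxicity flagged by phase-contrast morphology.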

[18] = target: Glucocorticoid receptor (Homo sapiens) (UniProt P04150); experiment: ATG_GR_TRANS: Attagene TRANS-FACTORIAL HepG2 Assay for human Glucocorticoid Receptor (GR) (AID 2282978); details: HepG2 Attagene TRANS GR reporter, mRNA transcription;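 note: activators score as hits since higher reporter transcript over DMSO is fitted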
How it was run: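 In this trans-factorial format, exogenous NR-GAL4 chimeric proteins in transfected HepG2 cells regulate GAL4-UAS reporter transcription. After 24 h treatment, reporter mRNA induction relative to DMSO is read by RT-PCR and capillary electrophoresis.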

[19] = target: Bile acid receptor (Homo sapiens) (UniProt Q96RI1); experiment: ATG_FXR_TRANS: Attagene TRANS-FACTORIAL HepG2 Assay for Farnesoid X Receptor (FXR) (AID 2282979); details: HepG2 Attagene TRANS FXR-GAL4 reporter transcription;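 note: hits raise reporter mRNA above DMSO so AC50 marks FXR activation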
How it was run: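 Transient transfection of HepG2 with multiplexed GAL4-UAS reporter units; exogenous FXR-GAL4 chimera. Dose 24 h → TriZol RNA → oligo(dT) RT → PCR, 6-FAM primer extension, HpaI cut → CE. Gain vs DMSO.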

## CNC(=O)ON=C(C)SC
[1]
  outcome: inactive
[2]
  outcome: inactive
[3]
  outcome: inactive
[4]
  outcome: inactive
[5]
  AC50: inconclusive: 20 µM
[6]
  outcome: inactive
[7]
  AC50: inconclusive: 20 µM
[8]
  AC50: inconclusive: 20 µM

## CC(C1CC1)C(O)(Cn1cncn1)c1ccc(Cl)cc1 (stereo not drawn)
[1]
  AC50: inconclusive: 0.649 µM
[9]
  outcome: inactive
[10]
  outcome: inactive
[11]
  AC50: inconclusive: 20 µM
[12]
  AC50: inconclusive: 20 µM
[13]
  outcome: inactive
[5]
  AC50: inconclusive: 0.0067 µM
[6]
  AC50: inconclusive: 20 µM
[7]
  AC50: inconclusive: 20 µM
[14]
  outcome: inactive
[15]
  AC50: inconclusive: 0.0002 µM
[16]
  outcome: inactive

## Cc1nc(N(C)C)nc(OC(=O)N(C)C)c1C
[1]
  outcome: inactive
[3]
  AC50: inconclusive: 3.97 µM
[4]
  AC50: inconclusive: 20 µM
[12]
  AC50: inconclusive: 0.00191 µM
[5]
  outcome: inactive
[17]
  AC50: inconclusive: 20 µM
[6]
  AC50: inconclusive: 20 µM
[7]
  outcome: inactive
[8]
  AC50: inconclusive: 0.546 µM
[14]
  AC50: inconclusive: 0.0172 µM

## CCC(C)c1cc([N+](=O)[O-])cc([N+](=O)[O-])c1OC(=O)C=C(C)C (stereo not drawn)
[19]
  AC50: inconclusive: 179 µM

## CCOP(=S)(OCC)SCCSCC
[1]
  outcome: inactive
[18]
  AC50: inconclusive: 50 µM
[10]
  AC50: inconclusive: 90.1 µM
[11]
  outcome: inactive
[3]
  outcome: inactive
[4]
  AC50: inconclusive: 7.52 µM
[12]
  outcome: inactive
[13]
  outcome: inactive
[5]
  AC50: inconclusive: 20 µM
[17]
  outcome: inactive
[6]
  AC50: inconclusive: 20 µM
[8]
  AC50: inconclusive: 20 µM
[15]
  AC50: inconclusive: 100 µM

## CCOP(=S)(OCC)O/N=C(\C#N)c1ccccc1
[19]
  outcome: inactive
[9]
  AC50: inconclusive: 1.2 µM

## O=NN1CCCCCC1
[18]
  outcome: inactive

## C#CC(C)(C)NC(=O)c1cc(Cl)cc(Cl)c1
[9]
  outcome: inactive
[11]
  outcome: inactive
[3]
  AC50: inconclusive: 20 µM
[4]
  AC50: inconclusive: 20 µM
[12]
  AC50: inconclusive: 3.97 µM
[13]
  AC50: inconclusive: 20 µM
[6]
  AC50: inconclusive: 2.07 µM
[8]
  AC50: inconclusive: 0.00115 µM
[15]
  outcome: inactive
